# Screening data, single-dose tests

Protein sequences, listed by entry. Tags and fused reporters are not part of them.
UniProt P9WPC5, whole entry: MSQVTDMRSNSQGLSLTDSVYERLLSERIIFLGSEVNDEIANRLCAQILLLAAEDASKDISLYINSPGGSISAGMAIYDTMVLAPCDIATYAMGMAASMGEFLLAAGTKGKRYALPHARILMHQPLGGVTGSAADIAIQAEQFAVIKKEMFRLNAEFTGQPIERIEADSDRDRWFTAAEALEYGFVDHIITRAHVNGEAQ
UniProt P9WPC3, whole entry partner: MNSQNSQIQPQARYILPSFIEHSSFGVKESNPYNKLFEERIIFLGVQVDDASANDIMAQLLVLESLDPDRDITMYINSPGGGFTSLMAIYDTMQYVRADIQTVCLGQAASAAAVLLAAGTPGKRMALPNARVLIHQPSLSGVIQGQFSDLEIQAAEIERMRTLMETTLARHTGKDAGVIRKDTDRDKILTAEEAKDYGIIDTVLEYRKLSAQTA
UniProt P9WNZ1, whole entry: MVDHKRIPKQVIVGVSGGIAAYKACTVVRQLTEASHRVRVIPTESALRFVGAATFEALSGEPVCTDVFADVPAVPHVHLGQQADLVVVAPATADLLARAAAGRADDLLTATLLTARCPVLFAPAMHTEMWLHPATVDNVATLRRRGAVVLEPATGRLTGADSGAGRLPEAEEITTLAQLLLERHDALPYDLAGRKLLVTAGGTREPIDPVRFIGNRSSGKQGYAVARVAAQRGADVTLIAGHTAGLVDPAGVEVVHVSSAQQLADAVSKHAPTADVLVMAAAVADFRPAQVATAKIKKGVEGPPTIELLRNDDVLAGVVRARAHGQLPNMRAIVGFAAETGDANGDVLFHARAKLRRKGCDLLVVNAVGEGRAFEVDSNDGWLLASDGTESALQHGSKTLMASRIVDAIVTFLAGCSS

Toxoplasma: 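Assay of Toxoplasma gondii numbers, read through their beta-galactosidase reporter with a colour substrate. Tested at 10 µM. Higher reads as fewer parasites (inferred from which compounds were picked for retests). Of about 67,000 compounds tested this way, about 260 (0.38%) reached 50% or more in at least one test.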
ClpP1P2: 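Protease assay of ClpP1P2, read by the AMC dye that it sets free. Target: ClpP1P2, Mycobacterium tuberculosis (UniProt P9WPC5 and UniProt P9WPC3). Tested at 50 µM. Direction is inferred from only a few compounds that gave an IC50; most scored high, so higher reads as stronger inhibition. Most other retested compounds had strongly negative values. Size under these conditions: about 69,000 compounds, about 10 of them at 50% or above in at least one test.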
T. brucei: 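Whole-parasite assay of Trypanosoma brucei over 72 hours; the read-out is not stated. Compounds at 30 µM. The record gives no direction; compounds that gave an IC50 in retests scored well above the rest, so higher reads as stronger inhibition. Values scatter widely below zero; nearly all retest evidence comes from the higher of the two concentrations used. About 64,000 compounds were tested under these conditions; 1.5% (about 940) showed 50% or more at least once.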
CoaBC: 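Coenzyme A biosynthesis protein CoaBC, Mycobacterium tuberculosis (UniProt P9WNZ1). Enzyme assay of CoaBC with a phosphate dye (Biomol Green) read at 650 nm. Concentration: 30 µM. Direction is inferred from only a few compounds that gave an IC50; most scored high, so higher reads as stronger inhibition. Most strong results did not repeat in a second test. Size under these conditions: about 67,000 compounds, about 40 of them at 50% or above in at least one test.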

Each number is a percent effect as filed. The record does not define 0% and 100%; most values in the screen are far below 50% and negative numbers occur (in some assays of this library far below -100). The compounds are a random part of those screened. A dash means the value is not listed here; it may have been measured.

| # | compound | Toxoplasma | ClpP1P2 | T. brucei | CoaBC |
|---|---|---|---|---|---|
| 1 | `COCCN1C[C@H]2CC[C@@H]1CN(C(=O)CCc1n[nH]c(C)c1C)C2` | - | 6.378% | - | 8.722% |
| 2 | `CCC(Nc1nc(C2CCCC2)nc2c1cnn2C)c1ccncc1` (stereo not given) | 10.41% | 9.039% | -5.533% | -6.237% |
| 3 | `Cc1ncsc1C(=O)NCc1cc2n(n1)CCN(C(=O)N(C)C)C2` | 2.11% | -5.559% | -37.71% | 6.362% |
| 4 | `CC(=O)N1CC2(CCN(c3nccc4ccccc34)CC2)CC1C(=O)O` (stereo not given) | -2.186% | -4.357% | 28.19% | 4.978% |
| 5 | `O=S(=O)(NCc1ccc(S(=O)(=O)N2CCCC2)s1)c1ccc(F)cc1Cl` | -1.324% | 3.794% | -38.04% | -1.263% |
| 6 | `Cn1nc(COCC2CC2)c2c1CCN(Cc1cccs1)C2.O=C(O)C(F)(F)F` | -4.377% | - | -72.61% | - |
| 7 | `CCCS(=O)(=O)N1CCN(Cc2ccco2)CC1` | - | -6.648% | - | -3.8% |
| 8 | `Cc1occc1C(=O)N1CCc2c(COCC3CC3)cncc2C1` | -2.528% | 6.336% | - | 9.254% |
| 9 | `O=C(NCc1nnc2ccccn12)N1CCOC(c2cccs2)C1` (stereo not given) | -9.584% | -7.254% | 1.833% | 0.495% |
| 10 | `Cn1cc(C[C@H]2[C@H](O)CCN2Cc2ccncc2)cn1.O=C(O)C(F)(F)F.O=C(O)C(F)(F)F` | -16.7% | - | -172.1% | - |
| 11 | `CCC(=O)NC1CCCN(Cn2nc(C(C)(C)C)ccc2=O)C1` (stereo not given) | -11.73% | -6.936% | -23.77% | 0.7968% |
| 12 | `Cc1csc(CN(CC2CCCO2)C(=O)c2occc2C)n1` (stereo not given) | -7.439% | -7.219% | -22.88% | -0.7212% |
| 13 | `CCC(SC)C(=O)N1CCC(n2cccn2)CC1` (stereo not given) | 1.602% | -4.84% | -42.99% | 6.203% |
| 14 | `CC(CNC(=O)OC(C)(C)C)N(C)C(=O)COc1ccccc1C#N` (stereo not given) | -12.7% | -4.232% | -11.59% | 4.854% |
| 15 | `COc1ccccc1CNC(C)c1ccc(-n2ccnc2)cc1` (stereo not given) | - | 7.351% | - | 1.489% |
| 16 | `Cc1cc2c(N3CCC(N(C)Cc4cnn(C)c4)CC3)ncnc2s1` | -30.77% | -18.71% | -15.85% | 6.535% |
| 17 | `CC(Cn1cccn1)NCCS(=O)(=O)c1ccccc1` (stereo not given) | 2.276% | -8.224% | -9.233% | -2.206% |
| 18 | `Cc1nc(O)cc([C@@H]2CN(S(=O)(=O)N(C)C)C[C@H]2c2ccccc2F)n1` | 11.52% | -20.18% | 4.99% | -3.206% |
| 19 | `COCCN1C[C@H]2[C@@H](C1)N(C(=O)COc1ccccc1)CC[C@H]2OC` | - | 10.7% | - | -0.9009% |
| 20 | `CC(=O)c1ccc(NCc2cc3n(n2)CCCN(S(C)(=O)=O)C3)nc1` | -6.072% | 2.468% | -17.18% | 2.381% |
| 21 | `Cc1ccoc1C(=O)N1C[C@@H]2[C@@H](C1)OCC(=O)N2Cc1cccnc1` | - | -11.69% | - | -4.689% |
| 22 | `CCOC(=O)N1CCC(OC)c2ccccc2N(CC(=O)NC)C(=O)C1` (stereo not given) | -36.34% | 2.819% | -4.355% | 2.906% |
| 23 | `O=C1N(Cc2cccc(F)c2)CCC12CCN(c1ccccn1)CC2` | - | 8.351% | - | 6.821% |
| 24 | `N#Cc1cccc(N2CCC(CO)(CCOc3ccccc3)CC2)n1` | -18.88% | -1.489% | -24.59% | 0.7299% |
| 25 | `Nc1nccc(N2CCNC(C(=O)NCc3ccccn3)C2)n1` (stereo not given) | 0.05804% | -6.302% | -20.52% | 4.839% |
| 26 | `O=C([C@H]1CCCO1)N1CCN(CCn2cccn2)c2ncccc2C1` | - | -4.289% | - | 3.704% |
| 27 | `CCNC(=O)NC1CN(CC(=O)NCc2ccccc2C)C[C@@H]1OC` (stereo not given in full) | -7.396% | -9.975% | -12.25% | 2.886% |
| 28 | `Cn1cc(C(=O)N[C@H]2CN(Cc3nccs3)[C@@H]3CCCO[C@H]23)cn1` | - | -9.594% | - | 3.909% |
| 29 | `NCC1(c2cccc(C(F)(F)F)c2)CC1` | 9.642% | -8.882% | -29.36% | 5.847% |
| 30 | `O=C(O)C(F)(F)F.O=C(O)C(F)(F)F.c1cnc(N2CCOC3(CCCN(c4cnccn4)C3)C2)nc1` (stereo not given) | 3.891% | - | -15.74% | - |
| 31 | `O=C(c1nc(COc2ccc3c(c2)OCO3)no1)N1CCCC1` | -6.216% | -8.791% | -10.16% | 2.557% |
| 32 | `COc1cccc2c1OCC(NC(=O)NCCc1ccccn1)C2` (stereo not given) | -9.961% | 0.7205% | 13.6% | -1.713% |
| 33 | `Cc1ccccc1N1CCN(C(=O)c2cnn(C(C)C)c2)C(C)C1` (stereo not given) | 12.07% | 8.018% | -19.79% | 8.333% |
| 34 | `Cc1nn(C)cc1C1CC(=O)Nc2c1cnn2C(C)C` (stereo not given) | 4.313% | -18.98% | 7.744% | 2.3% |
| 35 | `Cc1cc(CNC(=O)c2cnoc2C)c(C)o1` | 18.64% | -15.08% | -18.12% | 4.358% |
| 36 | `CC(=O)N(Cc1noc(C)n1)C1CCN(Cc2ccccn2)C1` (stereo not given) | -0.7012% | -32.49% | - | -9.651% |
| 37 | `O=C(c1cc(=O)n(-c2ccccc2)[nH]1)N1CCCC(c2ccn[nH]2)C1` (stereo not given) | -8.89% | -0.06156% | -24.05% | 12.92% |
| 38 | `[H][C@]12CNCCN1C[C@H](c1ccccc1)[C@H]2C(=O)OCC` | -41.48% | - | -24.8% | - |
| 39 | `O=C(c1nsc(Cl)c1Cl)N1CCc2nc3sccc3c(=O)n2CC1` | -15.36% | -1.844% | -13.44% | 0.618% |
| 40 | `O=C(c1ncc(F)cc1F)N1CCC(c2ncc[nH]2)CC1` | -10.86% | 0.605% | 6.329% | 4.444% |
| 41 | `Cn1cc(CC2CC(=O)N(Cc3ccc(OC(F)F)cc3)C2=O)cn1` (stereo not given) | 5.444% | -10.86% | -7.678% | 6.776% |
| 42 | `CCc1nnc(C(C)N2CCc3cncnc3C2)o1` (stereo not given) | 1.775% | 1.406% | 1.661% | 1.339% |
| 43 | `Cc1ccc(C(=O)N2CCc3c(CN4CCCC4)nn(C)c3C2)cc1C.O=C(O)C(F)(F)F` | 2.588% | - | 16.23% | - |
| 44 | `N#Cc1ccc(CNC(=O)NCCNC(=O)C2CCCC2)c(F)c1` | -4.58% | -0.168% | -8.657% | 5.785% |
| 45 | `CCS(=O)(=O)Nc1ccc2c(c1)C1(CCOCC1)CN2C.O=C(O)C(F)(F)F` | -31.94% | - | -8.982% | - |
| 46 | `Cc1cnn(CC2CCCN2CC(=O)NC2CCN(C3CC3)CC2)c1` (stereo not given) | -10.39% | 0.1302% | -16.19% | 6.489% |
| 47 | `Cn1nnn(-c2ccc(NS(=O)(=O)c3ccc(Br)cc3)cc2)c1=O` | 3.732% | -2.65% | 7.997% | -2.326% |
| 48 | `CN(C)C(=O)CO[C@H]1CN(Cc2nccs2)[C@@H]2COC[C@H]12` | - | -9.259% | - | 1.238% |
| 49 | `c1ccc(N2CCc3ncnc(C4CC4)c3CC2)nc1` | -1.937% | 4.174% | 2.539% | 1.932% |

3 of the entries, repeated:

compound	Toxoplasma	ClpP1P2	T. brucei	CoaBC
N#Cc1ccc(CNC(=O)NCCNC(=O)C2CCCC2)c(F)c1	-4.58%	-0.168%	-8.657%	5.785%
CC(Cn1cccn1)NCCS(=O)(=O)c1ccccc1 (stereo not given)	2.276%	-8.224%	-9.233%	-2.206%
N#Cc1cccc(N2CCC(CO)(CCOc3ccccc3)CC2)n1	-18.88%	-1.489%	-24.59%	0.7299%

Source: ChEMBL document CHEMBL3988442, “University of Dundee, Small-Polar-MMV Screening Library” (2021).